The values that follow are results of earlier work, collected in US20060047171A1, “Catalytic hydrogenation of nitriles to produce capsaicinoid derivatives and amine compounds, and methods for purifying and obtaining the polymorphs thereof” (priority 2003, published 2006).

The subject of this data set is response latency on heated plate. Particulars: 5.0 mg/Kg s. c.; mice; cited from earlier work.

For `CN1CC[C@]23c4c5ccc(O)c4O[C@H]2[C@@H](O)C=C[C@H]3[C@H]1C5.Cl` [Morphine-HCl], the “Inhibition (%)” value is 49.0%.
